Laboratory results: PubChem BioAssay AID743121 (NCATS, 2013)

Aim: 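Knock-downs that sensitise breast cancer cells to camptothecin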 (primary screen)
Cell system: MDA-MB-231 cells, a human breast cancer line
Knock-down reagent: single siRNA against human genes, 20 nM siRNA (0.8 pmol per well)
Timing: 120 h (drug added 48 h after transfection, read 72 h later)
Challenge: camptothecin 20 nM (about EC30) for 72 h; vehicle 0.1% DMSO in parallel plates
Measurement: 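CellTiter-Glo ATP signal, scaled to control siRNA as percent viability; sensitisation given as log2 of untreated divided by camptothecin-treated viability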
Scale: log2 vehicle/camptothecin viability: higher = stronger sensitisation to camptothecin; viability with camptothecin and viability without drug: higher = more viable cells
Active means: 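Active genes have an RSA gene-level p-value below 0.001, computed from the ratios of their separate siRNAs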
Here is a random part of about 26,000 deposited reagents. Over the whole deposit, 167 (0.63%) were called active. 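Calls are per gene from RSA p-values that are not deposited; an individual active-marked siRNA can sensitise only weakly.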 The numbers tell different reagents against one gene apart.

gene symbol,reagent no.,log2 vehicle/camptothecin viability,viability with camptothecin (% of control),viability without drug (% of control),call
PACSIN3 (protein kinase C and casein kinase substrate in neurons 3),1,-0.292,94.1,76.9,inactive
PACSIN3 (protein kinase C and casein kinase substrate in neurons 3),2,-0.387,116,88.8,inactive
PACSIN3 (protein kinase C and casein kinase substrate in neurons 3),3,-0.237,72.4,61.5,inactive
PACSIN3 (protein kinase C and casein kinase substrate in neurons 3),4,-0.197,91.9,80.1,inactive
ECT2 (epithelial cell transforming 2),1,-0.167,122,109,inactive
ECT2 (epithelial cell transforming 2),2,0.125,52.3,57,inactive
ECT2 (epithelial cell transforming 2),3,-0.0917,76.9,72.2,inactive
ECT2 (epithelial cell transforming 2),4,-0.21,44.8,38.7,inactive
ATRX (ATRX chromatin remodeler),1,-0.0405,86.5,84.1,inactive
ATRX (ATRX chromatin remodeler),2,0.157,56.6,63.1,inactive
ATRX (ATRX chromatin remodeler),3,-0.323,71.7,57.3,inactive
ATRX (ATRX chromatin remodeler),4,-0.321,117,93.8,inactive
MATK (megakaryocyte-associated tyrosine kinase),1,-0.207,77.3,66.9,inactive
MATK (megakaryocyte-associated tyrosine kinase),2,-0.264,80.4,67,inactive
MATK (megakaryocyte-associated tyrosine kinase),3,0.338,65.3,82.6,inactive
MATK (megakaryocyte-associated tyrosine kinase),4,-0.403,105,79.3,inactive
TNFSF18 (TNF superfamily member 18),1,0.0119,89.1,89.9,inactive
TNFSF18 (TNF superfamily member 18),2,-0.147,53.9,48.6,inactive
TNFSF18 (TNF superfamily member 18),3,0.138,81.4,89.5,inactive
TNFSF18 (TNF superfamily member 18),4,-0.359,103,80.2,inactive
ABCB4 (ATP binding cassette subfamily B member 4),1,-0.348,71.9,56.4,inactive
ABCB4 (ATP binding cassette subfamily B member 4),2,-0.412,84,63.1,inactive
ABCB4 (ATP binding cassette subfamily B member 4),3,0.781,10.1,17.3,inactive
SIRPA (signal regulatory protein alpha),1,-0.0262,110,108,inactive
SIRPA (signal regulatory protein alpha),2,0.136,94,103,inactive
SIRPA (signal regulatory protein alpha),3,-0.12,99.8,91.9,inactive
SIRPA (signal regulatory protein alpha),4,-0.598,11.1,7.36,inactive
TRPC3,1,0.105,64.6,69.5,inactive
TRPC3,2,-0.484,80.5,57.5,inactive
TRPC3,3,0.00357,67.4,67.6,inactive
DCLK1 (doublecortin like kinase 1),1,0.578,58.5,87.4,inactive
DCLK1 (doublecortin like kinase 1),2,0.0259,84.9,86.5,inactive
DCLK1 (doublecortin like kinase 1),3,-0.0713,85.8,81.6,inactive
DCLK1 (doublecortin like kinase 1),4,-0.0573,99.1,95.3,inactive
FAM3B (FAM3 metabolism regulating signaling molecule B),1,-0.567,104,70.6,inactive
FAM3B (FAM3 metabolism regulating signaling molecule B),2,-0.734,63.5,38.1,inactive
FAM3B (FAM3 metabolism regulating signaling molecule B),3,-0.0972,114,106,inactive
FAM3B (FAM3 metabolism regulating signaling molecule B),4,0.0682,78.2,82,inactive
PDGFB (platelet derived growth factor subunit B),1,0.416,2.73,3.65,inactive
PDGFB (platelet derived growth factor subunit B),2,0.0573,74.2,77.2,inactive
PDGFB (platelet derived growth factor subunit B),3,0.221,62.9,73.3,inactive
PDGFB (platelet derived growth factor subunit B),4,-0.376,96.7,74.6,inactive
PDE6C (phosphodiesterase 6C),1,0.0287,76.3,77.9,inactive
PDE6C (phosphodiesterase 6C),2,0.417,76.3,102,inactive
PDE6C (phosphodiesterase 6C),3,-0.268,115,95.5,inactive
"PIN1 (peptidylprolyl cis/trans isomerase, NIMA-interacting 1)",1,-0.416,54,40.5,inactive
"PIN1 (peptidylprolyl cis/trans isomerase, NIMA-interacting 1)",2,-0.415,47.1,35.3,inactive
"PIN1 (peptidylprolyl cis/trans isomerase, NIMA-interacting 1)",3,0.241,36.6,43.3,inactive
"PIN1 (peptidylprolyl cis/trans isomerase, NIMA-interacting 1)",4,-1.21,10.9,4.7,inactive
ACADM (acyl-CoA dehydrogenase medium chain),1,-0.0594,94.4,90.6,inactive
ACADM (acyl-CoA dehydrogenase medium chain),2,-0.112,125,116,inactive
ACADM (acyl-CoA dehydrogenase medium chain),3,-0.207,120,104,inactive
RHOC (ras homolog family member C),1,0.286,46.5,56.7,inactive
RHOC (ras homolog family member C),2,-0.0925,87.1,81.7,inactive
RHOC (ras homolog family member C),3,-0.302,94.9,77,inactive
IFITM1 (interferon induced transmembrane protein 1),1,-0.149,90.3,81.4,inactive
IFITM1 (interferon induced transmembrane protein 1),2,-0.207,87.7,76,inactive
IFITM1 (interferon induced transmembrane protein 1),3,0.0204,72.6,73.6,inactive
IFITM1 (interferon induced transmembrane protein 1),4,-0.428,78.4,58.3,inactive
PRB4 (proline rich protein BstNI subfamily 4),1,-0.684,94.2,58.7,inactive
PRB4 (proline rich protein BstNI subfamily 4),2,-0.0338,72.2,70.6,inactive
PRB4 (proline rich protein BstNI subfamily 4),3,-0.276,95.7,79,inactive
IL17RB (interleukin 17 receptor B),1,0.384,58.3,76.1,inactive
IL17RB (interleukin 17 receptor B),2,-0.337,26.4,20.9,inactive
IL17RB (interleukin 17 receptor B),3,-0.262,83.5,69.7,inactive
IL17RB (interleukin 17 receptor B),4,-0.393,61.6,46.9,inactive
MRGPRX3 (MAS related GPR family member X3),1,-0.0327,92.6,90.5,inactive
MRGPRX3 (MAS related GPR family member X3),2,0.509,58.9,83.8,inactive
MRGPRX3 (MAS related GPR family member X3),3,-0.0118,89.1,88.4,inactive
MRGPRX3 (MAS related GPR family member X3),4,-0.0265,108,106,inactive
